The values below come from the supplement of paper PMC7125110.

Sequences and labels used below:
B1: glmS ribozyme (parent)
chain: AUAAAAGCGCCAGAACUACAGAAAUGUAGUUGACGAGGAGGAGGUUUAUCGAAUUUUCGGCGGAUGCCUCCAAA

± gives the standard error. Many of these values have a large error.

Variants of B1 are the subject of one series. The series is described as follows: KM; higher = weaker cofactor use; RNA array. The note with it: with glucosamine-6-phosphate. The method, boiled down:
(§1)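 Sequenced MiSeq chips were the platform: E. coli RNA polymerase transcribed barcoded ribozyme variants on them in situ, and a hybridised Cy3 probe tracked these at 37 °C. After glucosamine-6-phosphate (40 μM to 10 mM) in HEPES/KCl/Mg(OAc)2 buffer was flowed in, tiles were imaged over ~14 h. Signals normalised to baseline and to non-cleaving reference variants were reduced to per-tile medians and fit to one- or two-exponential decays to obtain kobs. kcat and KM were derived through weighted Michaelis–Menten fits across concentrations.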
For the variant U30A A53G, the KM turned out to be 1280 ± 780 µM.
On the same count and under the same terms, in the case of C16A G32C it was 1220 ± 140 µM; in that of U30C C61G, 178 ± 110 µM; in that of U31G G51C, 210 ± 61 µM.
Same read-out and setting: in the case of G40A G44C it was 2680 ± 1100 µM; in that of U30A C67U, 1980 ± 1100 µM.
On the same count and under the same terms, in the case of U30A C67G it was 1650 ± 330 µM; in that of A33G A64G C70A, 412 ± 260 µM; in that of A36U C61A, 585 ± 530 µM.
Consider U30A U55G, for which the KM was 2190 ± 1200 µM.
Same read-out and setting: in the case of C16U U57C it was 4890 ± 3200 µM.
Same read-out and setting: in the case of U31G U69A it was 102 ± 80 µM; in that of C19U, 179 ± 140 µM; in that of A36U U57A G66C, 10.3 ± 8.9 µM.
On the same count and under the same terms, in the case of U31C C61A it was 4050 ± 2500 µM; in that of U31A G32U, 8770 ± 5500 µM.
Turning to G29A U45A, the KM was determined as 3200 ± 1300 µM.
On the same count and under the same terms, in the case of G40A C68U it was 879 ± 770 µM; in that of G40C C71A, 1710 ± 940 µM; in that of C16G U46G, 1740 ± 950 µM.
As to A39C U69C, the Michaelis-Menten constant (KM) came to 999 ± 630 µM.
Still for that read-out and setting: in the case of G37C G60C it was 204 ± 110 µM; in that of G32U G51U U55A, 2690 ± 2100 µM.
The same measure, in the same setting: in the case of C16A U46C it was 1730 ± 1300 µM; in that of A39G G43A, 5960 ± 2100 µM.
As for A39G G43U, the KM was determined as 1170 ± 240 µM.
For the variant G32A A64U, the Michaelis constant (KM) came to 939 ± 530 µM.
For the variant A15U G29C, the KM turned out to be 2340 ± 910 µM.
The same measure, in the same setting: in the case of G41U A53G it was 291 ± 120 µM; in that of A39U C71G, 3300 ± 1600 µM.
Same read-out and setting: in the case of A33U C71U it was 2840 ± 690 µM.
On the same count and under the same terms, in the case of U30C C58U it was 7680 ± 6900 µM; in that of C16U G66C, 657 ± 250 µM.
As to C16U G66A, the KM stood at 1520 ± 640 µM.
Still for that read-out and setting: in the case of G37U C71A it was 471 ± 420 µM.
Still for that read-out and setting: in the case of U31C U45A it was 3890 ± 1200 µM; in that of A36U C68G, 61.3 ± 46 µM; in that of G32U U65G, 127000 ± 65000 µM.
Same read-out and setting: in the case of C16G U57G it was 1400 ± 850 µM; in that of G32U C58A, 5030 ± 1000 µM; in that of G32U C58U, 5150 ± 2700 µM.
In the case of G41C U55A, the KM amounted to 1280 ± 280 µM.
G41C U55C: the KM turned out to be 2540 ± 1400 µM.
On the same count and under the same terms, in the case of G41U C58A it was 5230 ± 3800 µM.
Turning to A33C G66A, the Michaelis-Menten constant (KM) is 2470 ± 580 µM.
For the variant G29U C58A, the Michaelis constant (KM) was 3860 ± 2300 µM.
Take G41U U47C: the KM stood at 1250 ± 1100 µM.
For G37U C70A, the KM was found to be 51.1 ± 45 µM.
Same read-out and setting: in the case of U31A A39C it was 2120 ± 1000 µM.
For G37A U49G, the KM amounted to 2240 ± 1400 µM.
Same read-out and setting: in the case of G40C C67A it was 603 ± 410 µM; in that of A15U G43A, 162 ± 130 µM.
Same read-out and setting: in the case of G35A C71G it was 26.4 ± 25 µM; in that of C16U G44A, 2000 ± 1200 µM.
Same read-out and setting: in the case of U31G A33U C70U it was 2540 ± 1500 µM.
Consider A15U G44U U47G C67G, for which the KM amounted to 967 ± 700 µM.
Consider G41U, for which the KM came to 1300 ± 760 µM.
Still for that read-out and setting: in the case of G41A it was 2940 ± 1900 µM.
The same measure, in the same setting: in the case of A39U G40U C70U it was 334 ± 250 µM; in that of U30G C67A C70U, 353 ± 78 µM.
Still for that read-out and setting: in the case of C16U U30C it was 269 ± 240 µM; in that of A33C U57A, 480 ± 390 µM.
G32C G43U: the KM was determined as 763 ± 760 µM.
On the same count and under the same terms, in the case of G32C A53C it was 18600 ± 1900 µM.
On the same count and under the same terms, in the case of A36G A53U it was 4580 ± 2300 µM.
Same read-out and setting: in the case of A33C G41U it was 4820 ± 2500 µM.
In the case of G29U U54A U65A, the Michaelis constant (KM) stood at 821 ± 460 µM.
On the same count and under the same terms, in the case of G41C U47G it was 50700 ± 23000 µM; in that of A39C A64U, 609 ± 600 µM.
Still for that read-out and setting: in the case of C16A U54G it was 1470 ± 870 µM; in that of A39G A53G, 2770 ± 830 µM; in that of G29U G66A, 1710 ± 700 µM.
Still for that read-out and setting: in the case of A42C G62A it was 346 ± 220 µM; in that of A15U U54A, 1360 ± 360 µM.
In the case of G40A C70G, the Michaelis constant (KM) was 1280 ± 660 µM.
Same read-out and setting: in the case of C16U C71G it was 141 ± 82 µM.
Still for that read-out and setting: in the case of G41A A53C it was 1730 ± 1200 µM.

In the next series the parent is B1. The series is described as follows: self-cleavage kobs at 160 uM GlcN6P; higher = faster cleavage; RNA array. The note with it: with glucosamine-6-phosphate. The method, boiled down:
as §1
Take U30A C67G: the “self-cleavage kobs at 160 uM GlcN6P” value came out at 1.51e-05 ± 1.3e-05 s⁻¹.
The same measure, in the same setting: in the case of A36U C68G it was 0.000311 ± 0.0002 s⁻¹; in that of G41U U47C, 2.95e-05 ± 2.9e-05 s⁻¹; in that of C16U G44A, 2.57e-05 ± 1.7e-05 s⁻¹.
Still for that read-out and setting: in the case of G40A C70G it was 2.43e-05 ± 1.6e-05 s⁻¹.

The variants in a further series derive from B1. In words: self-cleavage kobs at 640 uM GlcN6P; higher = faster cleavage; RNA array. The note with it: with glucosamine-6-phosphate. Put shortly:
as §1
For A33G A64G C70A, the “self-cleavage kobs at 640 uM GlcN6P” value was 3.03e-05 ± 2e-05 s⁻¹.
On the same count and under the same terms, in the case of G41C U55A it was 2.6e-05 ± 2.5e-05 s⁻¹; in that of G41C U55C, 2.73e-05 ± 1.6e-05 s⁻¹.
Same read-out and setting: in the case of U31G A33U C70U it was 3.05e-05 ± 2.4e-05 s⁻¹.

Variants of B1 are the subject of another series. In words: self-cleavage kobs at 2500 uM GlcN6P; higher = faster cleavage; RNA array. The note with it: with glucosamine-6-phosphate. Put shortly:
as §1
Turning to A33G A64G C70A, the “self-cleavage kobs at 2500 uM GlcN6P” value was found to be 4.46e-05 ± 2.7e-05 s⁻¹.
As for A36U C68G, the “self-cleavage kobs at 2500 uM GlcN6P” value was determined as 0.000266 ± 0.00018 s⁻¹.
Same read-out and setting: in the case of U31G A33U C70U it was 4.04e-05 ± 2.1e-05 s⁻¹.

The next series covers variants of B1. The series is described as follows: self-cleavage kobs at 10000 uM GlcN6P; higher = faster cleavage; RNA array. The note with it: with glucosamine-6-phosphate. The method, boiled down: as §1
Turning to U30C C58U, the “self-cleavage kobs at 10000 uM GlcN6P” value is 1.84e-05 ± 1.5e-05 s⁻¹.
Still for that read-out and setting: in the case of C16G U57G it was 1.94e-05 ± 1.3e-05 s⁻¹.
Take G32C A53C: the “self-cleavage kobs at 10000 uM GlcN6P” value was found to be 1.27e-05 ± 1.1e-05 s⁻¹.

Variants of B1 are the subject of a further series. In words: self-cleavage kobs at 40 uM GlcN6P; higher = faster cleavage; RNA array. The note with it: with glucosamine-6-phosphate. Put shortly:
as §1
On to G32U C58A, for which the “self-cleavage kobs at 40 uM GlcN6P” value amounted to 1.36e-05 ± 1.1e-05 s⁻¹.
Still for that read-out and setting: in the case of A15U G44U U47G C67G it was 3.45e-05 ± 2.5e-05 s⁻¹; in that of U30G C67A C70U, 3.58e-05 ± 2.6e-05 s⁻¹; in that of G40A C70G, 2.41e-05 ± 2.3e-05 s⁻¹.
